The term AC50 denotes the midpoint of the concentration-response curve, whichever way the signal moves.

These results are taken from PubChem BioAssay AID1487 (National Center for Advancing Translational Sciences (NCATS), 2009).

Molecules are shown by their SMILES. Values joined by “and” are separate entries in the source; they are usually repeats but may differ in a detail not shown here. Identical values can stand only once. This is one part of the list. These are further read-outs of the screen, such as a control signal, another cell line or another target. No call is given for them. Most of these compounds were active or inconclusive in the main read-out, so they are no random draw. The note in brackets gives the kind of curve behind each potency; many fits are weak.

The nature of the assay: qHTS Assay for Modulators of Lamin A Splicing. The note with it: HeLa LMNA splicing GFP/RFP minigene ratio, 48 h. The procedure, abridged:
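Read-out is the ratio of GFP to DsRed2 object intensity, acquired by 488 nm laser-scanning cytometry on HeLa lamin A-EGFP minigene reporter cells. Compound incubation 48 hrs at 37 °C in Opti-MEM with 2% FBS; DMSO 0.5% final.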
On the technique in general: qHTS replaces the single test concentration by a dilution series.

Where [1] appears, read: measured here: GFP splicing reporter channel.
Where [2] appears, read: measured here: RFP viability control channel.

For `COc1cc2c(cc1O)C[C@H]1c3c(cc(O)c(OC)c3-2)CCN1C`, the concentration at half-maximal activity (AC50) runs as follows: under setting [1], 0.316 µM [falling, single point]; under setting [2], 0.316 µM [falling, single point].

`O=C(NC1(C(F)(F)F)Oc2ccccc2O1)N1CCC2(CC1)OCCO2`: the concentration at half-maximal activity (AC50) under setting [2] was 15.8 µM [rising, single point].

Regarding `Cc1nn(Cc2ccccc2Cl)c(Cl)c1C(=O)OC(C(=O)NC(N)=O)C(C)C` (configuration not stated), under setting [1], the half-maximal activity concentration (AC50) was 1.78 µM [rising, partial curve].

Take `CCC1(CC)C(=O)NC(=O)NC1=O`: the AC50 by setting is: under setting [1], 17.8 µM [falling, single point]; under setting [2], 15.8 µM [falling, partial curve].

As to `COCCOC(=O)c1c(N)n(Cc2ccco2)c2nc3ccccc3nc12`, the AC50 under setting [2] is 14.1 µM [rising, single point].

With `CCN1C(=O)C(=Cc2ccc(C)s2)C(=O)N(CC)C1=S`, the AC50 under setting [2] was 3.16 µM [falling, single point].

Regarding `CCCCn1c(O)c(C(C)=Nc2ccc(OCC)cc2)c(=O)[nH]c1=O`, the AC50 under setting [2] was 35.5 µM [rising, single point].

Consider `O=C(CCCN1CCC(n2c(=O)[nH]c3ccccc32)CC1)c1ccc(F)cc1`, for which the AC50 was 1.78 µM [falling, full curve, poor fit] under setting [1] and 1.58 µM [falling, single point] under setting [2].

For `CCOC(=O)c1c(C)n(Cc2ccccc2)c2ccc(O)cc12`, the AC50 was 0.0447 µM [falling, full curve, poor fit] under setting [1] and 0.0447 µM [falling, full curve, poor fit] under setting [2].

For the molecule `O=C1CCO1`, the AC50 runs as follows: under setting [1], 1.26 µM [falling, single point]; under setting [2], 35.5 µM [falling, single point].

With `COc1ccc(CN2CCN(c3ccccc3)CC2)c(C)c1C`, under setting [2], the AC50 was 11.2 µM [rising, partial curve].

As to `C/C(CC(c1ccccc1)c1c(O)c2ccccc2oc1=O)=N\NC(N)=S` (configuration not stated), the AC50 under setting [2] is 0.178 µM [falling, full curve].

`CCc1ccccc1NC(=O)Nc1cc(C(=O)NCc2ccc(C(C)C)cc2)ccc1N1CCCC1`: the AC50 is 35.5 µM [falling, single point] under setting [1] and 11.2 µM [falling, partial curve, poor fit] under setting [2].

As for `COc1cc2c3cc1Oc1cc(ccc1O)C[C@@H]1c4c(cc(OC)c(O)c4Oc4cccc(c4)C[C@H]3N(C)CC2)CC[N+]1(C)C`, the AC50 under setting [1] is 0.00708 µM [falling, full curve, poor fit] and the AC50 under setting [2] was 0.00708 µM [falling, full curve, poor fit].

Turning to `O=C(CNC(=O)c1cccc(Cl)c1)Nc1ccc(Br)cc1C(=O)c1ccccc1`, the AC50 under setting [2] was 31.6 µM [rising, single point].

For `CCC(=O)OC1(c2ccccc2)CCN(C)CC1C` (configuration not stated), the half-maximal activity concentration (AC50) under setting [2] was 0.0251 µM [falling, full curve, poor fit].

For `C[N+]1(C)C2CCC1CC(OC(=O)c1c[nH]c3ccccc13)C2` (configuration not stated), the AC50 by setting is: under setting [1], 35.5 µM [falling, single point]; under setting [2], 25.1 µM [falling, single point].

On to `CCOP(=O)(OCC)C(NS(=O)(=O)c1ccccc1)C(Cl)(Cl)Cl` (configuration not stated), for which the half-maximal activity concentration (AC50) by setting is: under setting [1], 2.82 µM [falling, full curve]; under setting [2], 2.51 µM [falling, full curve].

Turning to `COCCCn1c(-c2ccc(OC)cc2)cc(C(=O)NC2CCCCCCC2)c1C`, the AC50 was 35.5 µM [rising, single point] under setting [1] and 35.5 µM [rising, single point] under setting [2].

Consider `C[C@]12CC[C@@H]3C(=CCc4cc(O)ccc43)[C@@H]1CCC2=O`, for which, under setting [2], the AC50 was 14.1 µM [falling, single point].

For the molecule `CC(=O)Nc1cc(C(=O)N2CCC3(CC2)OCCO3)ccc1Sc1ccc(F)cc1`, the concentration at half-maximal activity (AC50) under setting [1] was 0.141 µM [rising, full curve, poor fit].

Turning to `OC(CCCN1CCC(O)(c2ccc(Cl)cc2)CC1)c1ccc(F)cc1` (configuration not stated), the half-maximal activity concentration (AC50) under setting [2] is 15.8 µM [rising, single point].

For the molecule `CN(C)c1ccc(C(=O)c2ccc(N(C)C)cc2)cc1`, under setting [1], the AC50 was 11.2 µM [falling, partial curve].

As for `C[C@@]12CC[C@H](O)C[C@@H]1CC[C@H]1[C@@H]2C[C@@H](O)[C@]2(C)[C@@H](C3=CC(=O)OC3)CC[C@]12O`, the half-maximal activity concentration (AC50) was 7.08 µM [falling, partial curve, poor fit] under setting [1] and 0.224 µM [falling, full curve, poor fit] under setting [2].

As for `CCOc1ccc(C(=O)Nc2ccc3nc(SCC(=O)N4CCCC4)sc3c2)cc1`, the AC50 by setting is: under setting [1], 0.501 µM [falling, full curve]; under setting [2], 0.158 µM [falling, full curve].

With `C=C[C@@H]1C[C@@]1(C)[C@@H](NP(=O)(c1ccccc1)c1ccccc1)c1ccccc1`, the AC50 under setting [1] is 11.2 µM [rising, single point] and the AC50 under setting [2] was 10 µM [rising, partial curve].

For the molecule `CC(=O)OC1C[C@H](O[C@@H]2C(O)C[C@H](O[C@@H]3C(O)C[C@@H](OC4CC[C@]5(C)C(CCC6C5CC(O)[C@@]5(C)C(C7=CC(=O)OC7)CC[C@@]65O)C4)OC3C)OC2C)O[C@H](C)[C@H]1O[C@H]1OC(CO)C(O)C(O)C1O` (some centres not stated), the AC50 is 0.562 µM [falling, full curve] under setting [1] and 0.0562 µM [rising, partial curve, poor fit] under setting [2].

Consider `CN(C(=O)Oc1cccc2cccnc12)c1ccccc1`, for which, under setting [2], the AC50 was 0.251 µM [rising, full curve, poor fit].

On to `O=C1NC(=O)N(Cc2ccccc2)C(=O)/C1=C\C=C\c1ccco1`, for which the AC50 under setting [2] was 28.2 µM [falling, single point].

Turning to `CCOc1c(Cl)cc(CNCCc2c[nH]c3ccccc23)cc1OC`, the AC50 under setting [2] is 0.794 µM [falling, full curve, poor fit].

`CCN(CC)CCOC(=O)c1cc2cc(COC)ccc2o1`: the AC50 under setting [2] was 3.16 µM [falling, full curve].

On to `COc1cccc(Oc2c(C)oc3cc(OC(=O)N(C)C)ccc3c2=O)c1`, for which the AC50 under setting [2] was 0.00398 µM [falling, full curve, poor fit].

Take `O=C(OCC1O[C@@H](OC(=O)c2cc(O)c(O)c(O)c2)[C@@H](OC(=O)c2cc(O)c(O)c(O)c2)[C@@H](OC(=O)c2cc(O)c(O)c(O)c2)[C@@H]1OC(=O)c1cc(O)c(O)c(O)c1)c1cc(O)c(O)c(O)c1` (some centres not stated): under setting [2], the AC50 is 12.6 µM [rising, partial curve, poor fit].

For `CCCCc1nn2c(=O)cc(COC(=O)Cc3ccccc3)nc2s1`, the AC50 under setting [2] is 0.00501 µM [falling, full curve, poor fit].

Consider `O=C(Nc1ccc(Cl)c(Cl)c1)O/N=C/c1ccncc1`, for which the AC50 under setting [2] is 31.6 µM [rising, partial curve].

Regarding `Clc1ccc2c(c1)C(c1ccccc1Cl)=NCc1nnc(N3CCN(CCOc4ccccc4)CC3)n1-2`, the AC50 under setting [1] is 7.94 µM [rising, partial curve] and the half-maximal activity concentration (AC50) under setting [2] was 15.8 µM [rising, partial curve].

For the molecule `c1ccc(OCCSc2nc3ccccc3[nH]2)cc1`, the AC50 under setting [2] is 35.5 µM [rising, single point].

In the case of `CCc1cccc(NC(=O)Cn2c(=O)oc3cc(S(=O)(=O)N4CCOCC4)ccc32)c1`, the AC50 reads like this: under setting [1], 14.1 µM [rising, single point]; under setting [2], 12.6 µM [rising, partial curve].

`CCOC(=O)C(O)(c1ccc(N(CC)C(=O)COc2ccccc2)cc1)C(F)(F)F` (configuration not stated): under setting [1], the AC50 is 5.62 µM [falling, single point].

In the case of `O=c1cc(-c2ccc(O)c(O)c2)oc2cc(O)cc(O)c12`, the AC50 was 12.6 µM [falling, single point] under setting [1] and 3.16 µM [falling, partial curve] under setting [2].

Regarding `C[C@]12CCC3C(CC[C@H]4C[C@H](O)CC[C@]34C)C1CC[C@@H]2C(=O)CO` (some centres not stated), the concentration at half-maximal activity (AC50) under setting [1] is 5.62 µM [falling, partial curve, poor fit].

With `CCC(=O)O[C@H]1CC[C@H]2[C@@H]3CCC4=CC(=O)CC[C@]4(C)[C@H]3CC[C@]12C`, the AC50 runs as follows: under setting [1], 0.00501 µM [falling, full curve]; under setting [2], 0.00794 µM [falling, full curve, poor fit].

`Clc1ccc(COC(Cn2ccnc2)c2ccc(Cl)cc2Cl)c(Cl)c1` (configuration not stated): the AC50 runs as follows: under setting [1], 5.62 µM [falling, single point] and 3.55 µM [falling, partial curve]; under setting [2], 8.91 nM [rising, full curve, poor fit] and 4.47 µM [falling, partial curve].

For `Cc1cc(/C=C2/C(=O)NC(=O)N(C)C2=O)c(C)n1-c1ccccc1`, the AC50 by setting is: under setting [1], 0.708 µM [falling, full curve]; under setting [2], 1 µM [falling, full curve, poor fit].

Turning to `CC[C@@H]1CN2CCc3cc(OC)c(OC)cc3[C@H]2C[C@@H]1C[C@H]1NCCc2cc(OC)c(OC)cc21`, the AC50 is, setting by setting: under setting [1], 0.2 µM [falling, full curve]; under setting [2], 0.178 µM [falling, full curve].

Turning to `COCCOC(=O)C1=C(C)OC(N)=C(C(=O)OC)C12C(=O)Nc1ccccc12` (configuration not stated), under setting [2], the AC50 is 11.2 µM [rising, single point].

For the molecule `CCCCCC[C@H]1C(=O)O[C@H](C)[C@H](NC(=O)c2cccc(NC=O)c2O)C(=O)O[C@@H](C)[C@H]1OC(=O)CC(C)C`, the AC50 runs as follows: under setting [1], 0.000891 µM [falling, full curve, poor fit]; under setting [2], 0.00224 µM [falling, full curve, poor fit].

As for `Cc1cc(=O)n2[nH]c(C)cc2n1`, the AC50 under setting [2] was 31.6 µM [falling, partial curve, poor fit].

As for `C[C@H]1CC[C@]2(OC1)O[C@@H]1C[C@@H]3[C@@H]4CC[C@H]5C[C@@H](O)CC[C@]5(C)[C@@H]4CC(=O)[C@@]3(C)[C@H]1[C@@H]2C`, the AC50 under setting [1] was 0.00355 µM [falling, full curve] and the AC50 under setting [2] is 0.00178 µM [falling, full curve, poor fit].
